Test system: BON and BON‐SSTR2 tumors
Assay: Histological ex vivo examination of tumor sections (confocal laser scanning microscopy)
Type: in vivo, mouse

C[C@@H](O)[C@H](NC(=O)[C@@H]1CSSC[C@H](NC(=O)[C@@H](Cc2ccccc2)NC(=O)c2ccc3c(c2)C(C)(C)/C(=C/C=C/C2=[N+](C)c4ccc(CNC(=O)CNC(=O)CN5CCN(CC(=O)O)CCN(CC(=O)O)CCN(CC(=O)O)CC5)cc4C2(C)C)N3CCCCS(=O)(=O)[O-])C(=O)N[C@@H](Cc2ccc(O)cc2)C(=O)N[C@H](Cc2c[nH]c3ccccc23)C(=O)N[C@@H](CCCCN)C(=O)N[C@@H]([C@@H](C)O)C(=O)N1)C(=O)O [^68Ga‐DOTA‐ICC‐TATE, metal not drawn]
ICC fluorescence in tumor sections at PET tracer dose (mice sacrificed 1 h p.i., tracer dose of PET/MRI scan, SSTR2‐overexpressing and wild‐type tumor sections, confocal laser microscope): no fluorescence above background level was detected

C[C@@H](O)[C@H](NC(=O)[C@@H]1CSSC[C@H](NC(=O)[C@@H](Cc2ccccc2)NC(=O)c2ccc3c(c2)C(C)(C)/C(=C/C=C/C2=[N+](C)c4ccc(CNC(=O)CNC(=O)CN5CCN(CC(=O)O)CCN(CC(=O)O)CCN(CC(=O)O)CC5)cc4C2(C)C)N3CCCCS(=O)(=O)[O-])C(=O)N[C@@H](Cc2ccc(O)cc2)C(=O)N[C@H](Cc2c[nH]c3ccccc23)C(=O)N[C@@H](CCCCN)C(=O)N[C@@H]([C@@H](C)O)C(=O)N1)C(=O)O [^natGa‐DOTA‐ICC‐TATE, metal not drawn]
ICC fluorescence in wild‐type BON tumor sections (mean grey value) (6 nmol i.v., mice n=3 sacrificed 5 h p.i., confocal laser scanning microscopy): 12.4±3.3

— PMC8048842 (Chembiochem, 2021)
